{"sequences": {"note": "Amino acid sequences for entries named in this document (tags omitted).", "UniProt P53350, whole entry, looked up": "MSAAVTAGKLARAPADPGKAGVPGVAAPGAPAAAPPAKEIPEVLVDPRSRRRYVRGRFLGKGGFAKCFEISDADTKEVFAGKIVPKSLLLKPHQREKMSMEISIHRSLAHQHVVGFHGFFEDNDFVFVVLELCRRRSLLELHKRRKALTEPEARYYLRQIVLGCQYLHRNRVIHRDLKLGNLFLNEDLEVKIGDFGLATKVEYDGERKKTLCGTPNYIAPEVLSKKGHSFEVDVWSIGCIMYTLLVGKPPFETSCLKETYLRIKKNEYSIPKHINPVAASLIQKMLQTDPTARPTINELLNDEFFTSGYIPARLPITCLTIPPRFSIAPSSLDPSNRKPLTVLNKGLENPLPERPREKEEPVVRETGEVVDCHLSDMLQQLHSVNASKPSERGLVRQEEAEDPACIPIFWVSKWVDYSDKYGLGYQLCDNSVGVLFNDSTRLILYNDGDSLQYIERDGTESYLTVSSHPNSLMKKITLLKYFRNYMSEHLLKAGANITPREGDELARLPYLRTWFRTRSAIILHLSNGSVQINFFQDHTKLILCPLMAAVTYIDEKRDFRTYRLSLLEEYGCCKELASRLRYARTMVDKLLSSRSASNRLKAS"}, "source": "PubChem BioAssay AID720504", "about": "(National Center for Advancing Translational Sciences (NCATS), 2013)", "note": "Hit rate of the full screen: of about 360,000 compounds, about 10,000 (2.8%) were called active. The inconclusive results got no clear call from the source; some entries with a clear call stand among them for comparison. Calls follow the shape of the dose curve; as a rule, active = well fitted inhibition curve with a large enough effect; inconclusive = small, poorly fitted or top-dose-only effect; inactive = flat fitted curve, though single readings scatter. A potency beside an inconclusive call is a rough fit, not a confirmed value. % is scaled to controls: 0 for no effect and ±100 for the full control effect; potency is read from the fitted curve at half-maximal effect."}
{"biological_target": "Serine/threonine-protein kinase PLK1 (Homo sapiens) (UniProt P53350)", "test": "qHTS for Inhibitors of PLK1-PDB (polo-like kinase 1 - polo-box domain): Primary Screen; also: nearly all actives have a fitted effect of over 65% in size; as to max response, negative = inhibition: series mostly up to about 57 µM", "settings": "Plk1 PBD binding of FITC phosphopeptide, fluorescence polarization"}
{"smiles": "S=C(c1c[nH]c2ccccc12)N1CCOCC1", "Potency": "active: 15 µM"}
{"smiles": "O=C(CSc1cccc[n+]1[O-])Nc1ccccc1Oc1ccccc1", "Potency": "active: 29.9 µM"}
{"smiles": "CCOC(=O)/C=C1\\Nc2ccccc2OC1=O", "max response, negative = inhibition": "inactive: -0.0614%"}
{"smiles": "CCOC(=O)C(O)(CC(=O)Nc1cc(F)ccc1C)C(F)(F)F", "note": "(configuration not stated)", "Potency": "inconclusive: 29.9 µM [inhibitor, partial curve]"}
{"smiles": "Cc1ccc(NC(=O)c2cc(N3C(=O)C=CC3=O)ccc2Cl)cc1C", "Potency": "active: 5.32 µM"}
{"smiles": "CC1CCc2c(sc(NC(=O)CCC(=O)O)c2C(=O)NC2CC2)C1", "note": "(configuration not stated)", "Potency": "active: 5.32 µM"}
{"smiles": "Cc1ccc(S(=O)(=O)OCCC2=CC(=O)CCN2Cc2ccccc2)cc1", "max response, negative = inhibition": "inactive: -6.4%"}
{"smiles": "CSc1nc(-c2ccco2)nn1C(=O)c1ccco1", "Potency": "inconclusive: 9.47 µM [inhibitor, partial curve]"}
{"smiles": "O=C(COC(=O)C1CCN(S(=O)(=O)c2cc([N+](=O)[O-])ccc2Cl)CC1)Nc1ncc(Cl)cc1Cl", "Potency": "inconclusive: 26.7 µM [inhibitor, single point]"}
{"smiles": "COc1cc2c(cc1OC)CN(C(=O)CSc1ccccc1C)CC2", "Potency": "active: 26.7 µM"}
{"smiles": "CCCNC(=O)CSc1nnc(NC(=O)C2CC(=O)N(c3ccccc3OC)C2)s1", "note": "(configuration not stated)", "Potency": "inconclusive: 26.7 µM [inhibitor, single point]"}
{"smiles": "COc1ccc(S(=O)(=O)Nc2ccccc2C(=O)NCc2ccco2)cc1Br", "max response, negative = inhibition": "inconclusive: -31.9% [inhibitor]"}
{"smiles": "COc1ccc2c(=O)c3c(=O)n(Cc4ccccc4)c(C(C)C)nc3oc2c1", "max response, negative = inhibition": "inactive: 0.0642%"}
{"smiles": "CCCSc1nnc(N2C(=O)C(O)=C(C(=O)c3ccco3)C2c2ccccc2F)s1", "note": "(configuration not stated)", "Potency": "inconclusive: 33.6 µM [inhibitor, partial curve]"}
{"smiles": "c1ccc(CCc2nn3c(Cn4cnc5ccccc54)nnc3s2)cc1", "Potency": "active: 6.7 µM"}
{"smiles": "Cc1ccc(C2=NN(C(=O)c3ccccc3F)C(c3ccccc3F)C2)cc1", "note": "(configuration not stated)", "Potency": "inconclusive: 16.8 µM [inhibitor, partial curve]"}
{"smiles": "O=C1N=c2ccc([N+](=O)[O-])cc2=C1c1sc(=O)[nH]c1O", "Potency": "active: 3.36 µM"}
{"smiles": "COc1ccc(-c2nc(CS(=O)(=O)CC(=O)NCc3ccccc3OC)c(C)o2)cc1", "max response, negative = inhibition": "inactive: -10.4%"}
{"smiles": "O=C(O)CSC1CC(=O)N(c2ccc(Cl)c(Cl)c2)C1=O", "note": "(configuration not stated)", "Potency": "inconclusive: 21.2 µM [inhibitor, partial curve]"}
{"smiles": "COC(=O)[C@@]1(Cc2ccc(F)cc2)[C@H]2c3cc(C(=O)N4CCCC4)n(Cc4cc(F)cc5c4OCOC5)c3C[C@H]2CN1C(=O)c1ccccc1", "max response, negative = inhibition": "inactive: -2.47%"}
{"smiles": "O=C(NCc1cccnc1)c1cc(C2CCCN(C(=O)c3cccs3)C2)on1", "note": "(configuration not stated)", "max response, negative = inhibition": "inactive: 1.69%"}
{"smiles": "Cc1oc2c(cc(NS(=O)(=O)c3ccc(C(C)C)cc3)c3ccccc32)c1C(=O)O", "Potency": "active: 18.9 µM"}
{"smiles": "O=C1/C(=C/c2ccncc2)SC(=S)N1N1CCOCC1", "Potency": "inconclusive: 23.8 µM [inhibitor, partial curve]"}
{"smiles": "COc1ccc(NC(=O)CCS(=O)(=O)c2ccc3c(c2)NC(=O)C(C)S3)cc1OC", "note": "(configuration not stated)", "Potency": "active: 6.7 µM"}
{"smiles": "C/C(=N\\NS(=O)(=O)c1cccc([N+](=O)[O-])c1)c1cccnc1", "Potency": "inconclusive: 23.8 µM [inhibitor, partial curve]"}
{"smiles": "COc1ccc(C(=O)c2sc3nc(C)cc(-c4cccs4)c3c2N)cc1OC", "Potency": "inconclusive: 37.7 µM [inhibitor, single point]"}
{"smiles": "O=C1N=c2ccccc2=C1c1sc(NS(=O)(=O)Cc2ccccc2)nc1O", "Potency": "inconclusive: 29.9 µM [inhibitor, single point]"}
{"smiles": "O=C(c1cc2c(ccc3ccccc32)oc1=O)N1CCN(CCO)CC1", "Potency": "inconclusive: 42.3 µM [inhibitor, partial curve]"}
{"smiles": "O=C(CSC1=NC(=O)C(c2ccccc2)C(=O)N1)Nc1ccccc1[N+](=O)[O-]", "note": "(configuration not stated)", "Potency": "inconclusive: 21.2 µM [inhibitor, partial curve]"}
{"smiles": "CC[N+]1=CN(c2ccccc2)C(C)=CC1(C)C", "max response, negative = inhibition": "inconclusive: -31.2% [inhibitor]"}
{"smiles": "N#CCOc1ccccc1CNC[C@H]1O[C@@H](n2cnc3c(=O)[nH]c(N)nc32)[C@H](O)[C@@H]1O", "max response, negative = inhibition": "inactive: 2.16%"}
{"smiles": "Cc1cc(NC(=O)c2cc(-c3ccccn3)nc3ccc(Br)cc23)no1", "max response, negative = inhibition": "inactive: -15.1%"}
{"smiles": "CCN(CC)S(=O)(=O)c1cc([N+](=O)[O-])ccc1NNC(=O)Nc1ccccc1OC", "max response, negative = inhibition": "inactive: -23.6%"}
{"smiles": "CCS(=O)(=O)c1ncc(Cl)c(C(=O)Nc2ccc(S(=O)(=O)N3CCC(C)CC3)cc2)n1", "Potency": "inconclusive: 5.32 µM [inhibitor, full curve]"}
{"smiles": "CC(=O)c1cnc(SCC(=O)O)nc1C", "Potency": "inconclusive: 26.7 µM [inhibitor, partial curve]"}
{"smiles": "Cc1oc(/N=C/c2ccc(Cl)cc2)c(C#N)c1C", "max response, negative = inhibition": "inconclusive: -30.2% [inhibitor]"}
{"smiles": "Cc1ccc2[nH]c(C)cc(=S)c2c1", "Potency": "inconclusive: 29.9 µM [inhibitor, partial curve]"}
{"smiles": "CC(C)Oc1ccc(C(=O)Nc2cc(S(=O)(=O)N3CCOCC3)ccc2N2CCOCC2)cc1", "max response, negative = inhibition": "inactive: -7.65%"}
{"smiles": "CC1CCN(c2ccc(NC(=S)NC(=O)c3ccc(-c4cccc([N+](=O)[O-])c4)o3)cc2)CC1", "Potency": "inconclusive: 28.2 µM [inhibitor, partial curve]"}
{"smiles": "COc1ccc(NC(=S)N(CCN(C)C)C(C)c2ccco2)cc1Cl", "note": "(configuration not stated)", "Potency": "active: 23.8 µM"}
{"smiles": "COC(=O)c1ccccc1NC(=O)C(C)Oc1ccccc1", "note": "(configuration not stated)", "Potency": "active: 2.99 µM"}
{"smiles": "Cc1snc(SCC(=O)N/N=C(\\N)COc2cccc(C(F)(F)F)c2)c1C#N", "Potency": "inconclusive: 29.9 µM [inhibitor, single point]"}
{"smiles": "O=C1CCCCN1CC(=O)N1CCCC(Nc2ccc(F)c(F)c2)C1", "note": "(configuration not stated)", "Potency": "active: 21.2 µM"}
{"smiles": "O=C(CSc1nccn1-c1ccccc1)NO", "max response, negative = inhibition": "inactive: -22.5%"}
{"smiles": "CCCC(=O)NCCCCNC(=O)CCC", "max response, negative = inhibition": "inactive: -12.7%"}
{"smiles": "C=CCc1cccc(CNc2nc3ccccc3n2CCC)c1O", "max response, negative = inhibition": "inactive: 4.31%"}
{"smiles": "Nc1ncnc(Sc2ncccn2)c1[N+](=O)[O-]", "Potency": "inconclusive: 23.8 µM [inhibitor, partial curve]"}
